Read-outs that look alike come from different tables or passages of the source. The structures given here were assigned with low confidence; some may be wrong.
Columns and labels:
U937 cells = assay: Counter screen: cell viability without TSQ cocktail (off-target effect); conditions: read-out: Off-target effect (IC50 cell-based assay), Table 38
endogenous MLKL in U937 = endogenous MLKL in U937 (Homo sapiens (Human), UniProt Q8NB16); assay: Degradation assay: degradation of endogenous MLKL in human cells (Western blot); conditions: read-out: Degradation of endogenous MLKL in U937 (DC50 cell-based assay in μM), 24 h incubation
[1] = test system: U937 human histiocytic leukemia cell line; assay: Cellular assay: inhibition of TSQ induced necroptosis (CellTitre-Glo); conditions: read-out: Inhibition of TSQ-induced necroptosis (IC50 cell-based assay); U937 cells, TSQ cocktail, 48 hours, Table 38
MLKL (full length) = MLKL (full length) (Homo sapiens (Human), UniProt Q8NB16); assay: KINOMEscan binding assay, MLKL (full length)
RIP3 = RIP3 (Homo sapiens (Human), UniProt Q9Y572); assay: KINOMEscan binding assay, RIP3; conditions: read-out: RIP3 (KD), Table 35

Chains of the proteins cited; added tags and fusions are not shown.
UniProt Q8NB16, whole entry: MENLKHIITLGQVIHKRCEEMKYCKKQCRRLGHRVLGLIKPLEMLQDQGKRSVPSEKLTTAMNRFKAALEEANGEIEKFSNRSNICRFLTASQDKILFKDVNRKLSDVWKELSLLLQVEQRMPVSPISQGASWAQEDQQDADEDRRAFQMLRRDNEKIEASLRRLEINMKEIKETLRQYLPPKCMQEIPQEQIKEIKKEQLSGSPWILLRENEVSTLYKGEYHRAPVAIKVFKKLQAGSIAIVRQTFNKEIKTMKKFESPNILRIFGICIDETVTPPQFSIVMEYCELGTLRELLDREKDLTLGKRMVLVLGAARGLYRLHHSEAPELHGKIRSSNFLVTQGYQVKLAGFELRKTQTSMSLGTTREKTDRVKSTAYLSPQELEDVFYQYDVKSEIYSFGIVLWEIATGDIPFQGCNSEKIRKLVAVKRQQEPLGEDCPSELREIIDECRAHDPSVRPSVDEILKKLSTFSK
UniProt Q9Y572, whole entry: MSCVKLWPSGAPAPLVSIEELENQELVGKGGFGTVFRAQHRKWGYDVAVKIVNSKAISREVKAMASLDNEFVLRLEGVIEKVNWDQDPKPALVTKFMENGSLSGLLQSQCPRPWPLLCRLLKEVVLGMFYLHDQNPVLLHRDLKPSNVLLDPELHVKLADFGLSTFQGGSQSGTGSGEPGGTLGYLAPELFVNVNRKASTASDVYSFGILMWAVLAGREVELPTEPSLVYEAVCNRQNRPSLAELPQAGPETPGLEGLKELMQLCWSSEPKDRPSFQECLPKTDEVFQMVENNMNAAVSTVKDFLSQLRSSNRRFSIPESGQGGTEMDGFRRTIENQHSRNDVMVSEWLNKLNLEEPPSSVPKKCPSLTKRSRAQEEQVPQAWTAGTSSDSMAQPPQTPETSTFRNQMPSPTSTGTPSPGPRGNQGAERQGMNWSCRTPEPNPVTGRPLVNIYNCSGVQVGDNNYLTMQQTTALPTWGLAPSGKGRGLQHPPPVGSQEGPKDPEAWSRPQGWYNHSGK

SMILES	IC50 (U937 cells) [nM]	DC50 (endogenous MLKL in U937) [µM]	IC50 [1] [nM]	Kd (MLKL (full length); read-out: MLKL (KD), Table 36) [nM]	Kd (RIP3) [nM]	Kd (MLKL (full length); read-out: MLKL (KD), Table 35) [nM]
CCS(=O)(=O)Nc1ccc(-c2n[nH]c(Nc3ccc(C(=O)NCCCC(=O)N[C@H](C(=O)N4C[C@H](O)C[C@H]4C(=O)NCc4ccc(-c5scnc5C)cc4)C(C)(C)C)cn3)c2C(N)=O)cc1O[C@@H](C)c1ccc(F)cc1	> 10000	< 1	< 1000	< 10		
NC(=O)c1c(-c2ccc(NS(=O)(=O)Cc3cccc(Cl)c3)cc2)n[nH]c1Nc1cccc(C(F)(F)F)n1 [Compound 9, 3-(4-(((3-chlorophenyl)methyl)sulfonamido)phenyl)-5-((6-(trifluoromethyl)pyridin-2-yl)amino)-1H-pyrazole-4-carboxamide]					1000 to 30000	10 to 1000

— patent publication US20250074891A1 (Anaxis Pharma Pty Ltd., priority 2021, published 2025)
